Experimental data: PubChem BioAssay AID1224829 (NIAID, 2016)
Shown is one part, drawn at random, of about 3,800 deposited reagents. 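Calls cover raised and lowered translocation; gene median uses one vendor's three siRNAs; qiagen siRNAs acted more weakly than ambion siRNAs.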 Unmarked entries are inactive. The numbers tell different reagents against one gene apart.

Screen: 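Secondary check of hits that alter LPS-induced p65 translocation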 (follow-up of hits)
System: mouse RAW264.7 G9 macrophage reporter cells
Reagent: single siRNA against mouse genes, 100 nM
Time to read-out: 2 days of siRNA knock-down, then 40 min of LPS before fixing
Treatment: LPS (Salmonella minnesota R595) at 10 ng/ml
Measurement: 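High-content images after 40 min LPS exposure; GFP-p65 nucleus to surrounding ring signal ratio, normalised to plate median and non-targeting control wells, expressed as z-score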
Scale: p65 translocation z-score and gene median z-score, per vendor: higher = more nuclear NF-kappaB p65 after LPS
Active means: 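An siRNA is called active when the mean z-score of its two replicates is above 2 or below -2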
Meaning of the calls: active = changed p65 translocation (either direction); inactive = no clear change

Gene | siRNA no. | siRNA vendor or control pool | p65 translocation z-score, replicate mean | p65 translocation z-score, replicate 1 | p65 translocation z-score, replicate 2 | gene median z-score, per vendor
Prkd2 | 1 | ambion single siRNA | -1.52 | -2.49 | -0.553 | -1.52
Prkd2 | 2 | ambion single siRNA | 2.71 (active) | 3.45 | 1.96 | -1.52
Prkd2 | 3 | ambion single siRNA | -3.78 (active) | -3.96 | -3.6 | -1.52
Prkd2 | 4 | qiagen single siRNA | -0.805 | -1.11 | -0.495 | -3.46
Prkd2 | 5 | qiagen single siRNA | -3.46 (active) | -3.46 | – | -3.46
Prkd2 | 6 | qiagen single siRNA | -4.21 (active) | -3.72 | -4.69 | -3.46
Serpinb6c | 1 | ambion single siRNA | 2.49 (active) | 3.68 | 1.31 | -4.37
Serpinb6c | 2 | ambion single siRNA | -6.01 (active) | -7.1 | -4.92 | -4.37
Serpinb6c | 3 | ambion single siRNA | -4.73 (active) | -3.83 | -5.63 | -4.37
Serpinb6c | 4 | qiagen single siRNA | -0.735 | -0.835 | -0.636 | -0.735
Serpinb6c | 5 | qiagen single siRNA | 1.47 | 1.61 | 1.32 | -0.735
Serpinb6c | 6 | qiagen single siRNA | -4.63 (active) | -5.47 | -3.78 | -0.735
Tnfrsf8 | 1 | ambion single siRNA | 1.82 | 2.14 | 1.5 | -0.571
Tnfrsf8 | 2 | ambion single siRNA | -0.571 | -0.38 | -0.762 | -0.571
Tnfrsf8 | 3 | ambion single siRNA | -3.75 (active) | -3.4 | -4.11 | -0.571
Tnfrsf8 | 4 | qiagen single siRNA | 0.336 | 0.521 | 0.151 | -2.1
Tnfrsf8 | 5 | qiagen single siRNA | -2.18 (active) | -1 | -3.37 | -2.1
Tnfrsf8 | 6 | qiagen single siRNA | -3.76 (active) | -3.19 | -4.33 | -2.1
Bmp3 | 1 | ambion single siRNA | 4.61 (active) | 6.12 | 3.11 | -4.6
Bmp3 | 2 | ambion single siRNA | – | – | – | -4.6
Bmp3 | 3 | ambion single siRNA | -13.3 (active) | -14.3 | -12.3 | -4.6
Bmp3 | 4 | qiagen single siRNA | 1.37 | 0.458 | 2.28 | 0.851
Bmp3 | 5 | qiagen single siRNA | 1.69 | 1.24 | 2.14 | 0.851
Bmp3 | 6 | qiagen single siRNA | -3.02 (active) | -1.77 | -4.28 | 0.851
Kcnj1 | 1 | ambion single siRNA | 3.12 (active) | 3.2 | 3.04 | -2.39
Kcnj1 | 2 | ambion single siRNA | -2.39 (active) | -2.55 | -2.24 | -2.39
Kcnj1 | 3 | ambion single siRNA | -3.56 (active) | -3.36 | -3.77 | -2.39
Birc2 | 1 | ambion single siRNA | -7.08 (active) | -7.14 | -7.03 | -5.28
Birc2 | 2 | ambion single siRNA | -5.28 (active) | -5.46 | -5.09 | -5.28
Birc2 | 3 | ambion single siRNA | 2.2 (active) | 2.4 | 2 | -5.28
Birc2 | 4 | qiagen single siRNA | 2.15 (active) | 2.87 | 1.42 | 0.918
Birc2 | 5 | qiagen single siRNA | 0.918 | 1.34 | 0.499 | 0.918
Birc2 | 6 | qiagen single siRNA | -1.44 | -1.6 | -1.27 | 0.918
S1pr2 | 1 | ambion single siRNA | 1.07 | 2.47 | -0.32 | -1.76
S1pr2 | 2 | ambion single siRNA | -1.76 | -1.93 | -1.59 | -1.76
S1pr2 | 3 | ambion single siRNA | -2.81 (active) | -2.12 | -3.5 | -1.76
S1pr2 | 4 | qiagen single siRNA | 2.93 (active) | 2.19 | 3.66 | -0.833
S1pr2 | 5 | qiagen single siRNA | -0.833 | -1.33 | -0.34 | -0.833
S1pr2 | 6 | qiagen single siRNA | -3.33 (active) | -1.86 | -4.79 | -0.833

An excerpt from the list above, as a working copy:
Gene | siRNA no. | siRNA vendor or control pool | p65 translocation z-score, replicate mean | p65 translocation z-score, replicate 1 | p65 translocation z-score, replicate 2 | gene median z-score, per vendor
Serpinb6c | 1 | ambion single siRNA | 2.49 (active) | 3.68 | 1.31 | -4.37
Serpinb6c | 2 | ambion single siRNA | -6.01 (active) | -7.1 | -4.92 | -4.37
Serpinb6c | 3 | ambion single siRNA | -4.73 (active) | -3.83 | -5.63 | -4.37
Serpinb6c | 4 | qiagen single siRNA | -0.735 | -0.835 | -0.636 | -0.735
Serpinb6c | 5 | qiagen single siRNA | 1.47 | 1.61 | 1.32 | -0.735
Serpinb6c | 6 | qiagen single siRNA | -4.63 (active) | -5.47 | -3.78 | -0.735
